Experimental data: paper PMC5552691, “Novel giardicidal compounds bearing proton pump inhibitor scaffold proceeding through triosephosphate isomerase inactivation” (Scientific Reports, 2017)

test system: VERO cells; assay: Cytotoxicity assay (MTT) in VERO cells; type: cell-based; conditions: number in parenthesis
Procedure: The cytotoxic effect of these compounds was also evaluated in mammal cell cultures and their CC50 values calculated and depicted in Table 2.
We used the cell lines VERO (ATCC:CCL-81) and gingival human fibroblasts (kindly provided by Dra. María Dolores Farfán from Facultad de Odontología, Universidad Nacional Autónoma de México). The assay procedure is described below. Cells were maintained in a DMEM medium supplemented with antibiotic-antimycotic (1X), L-glutamine (1X) and 10% fetal bovine serum. Cells were incubated in 25 mL plastic culture flasks (Nunc) at 37 °C and 5% CO2. After the cell cultures grew to confluence, we determined the cell viability by using Trypan Blue method; then, cells were seeded at 4 × 10^4 cells/well in 100 µL culture medium during 24 hours. […] DMSO was maintained constant at 0.2%; a control was performed by incubating cells with this solvent concentration but in absence of compounds. After incubation time, we measured the cell viability by using MTT (3-(4,5-Dimethyl-2-thiazolyl)-2,5-diphenyl-2H-tetrazolium bromide; Roche Diagnostics) method. Briefly, 10 µL MTT (5 mg/mL) was added to cell cultures and incubated at 37 °C during four hours; then, 100 µL of solution containing 10% SDS and 0.01N HCl was added. Thereafter, the formazan products were spectrophotometrically quantified at 570 nm (Labxystem Uniskan, Manchester). The CC50 (median cytotoxicity concentration) and CI95 (95% confidence interval) values from each experiment were determined from the concentration-percentage plots of cell viability obtained by logistic regression. Statistical analysis was performed using the SPPSS software (version 17.0).

| SMILES | Ratio CC50/IC50 VERO cells vs trophozoites |
| --- | --- |
| Cc1ccc2nc([S+]([O-])Cc3nccc(OCC(F)(F)F)c3C)[nH]c2c1 (stereo not drawn) [BHO3, 5(6)-Methyl-2-({[3-methyl-4-(2,2,2-trifluoroethoxy)pyridin-2-yl]methyl}sulfinyl]-1H-benzimidazole] | 38 |
| COc1ccc2[nH]c([S+]([O-])Cc3ncc(C)c(OC)c3C)nc2c1 (stereo not drawn) [Omeprazole, omeprazole, reference compound] | 46 |
| COc1c(C)cnc(C[S+]([O-])c2nc3ccc(C)cc3[nH]2)c1C (stereo not drawn) [BHO2, 2-[(4-methoxy-3,5-dimethylpyridin-2-yl)methylsulfinyl]-5(6)-methyl-1H-benzimidazole] | 61 |
